In PubChem BioAssay AID1671190 (National Center for Advancing Translational Sciences (NCATS), 2021):
Hit rate of the full screen: of about 580,000 compounds, about 6,100 (1.1%) were called active. The shares of active, inactive and inconclusive entries below differ from those in the screen. The call rests on the fitted dose curve; in most records, active means well fitted inhibition curve with a large enough effect; inconclusive means small, poorly fitted or top-dose-only effect, or another doubt; inactive means no such curve, though single readings can be large or run the other way. A potency beside an inconclusive call is a rough fit, not a confirmed value.

By UniProt entry, the sequences of proteins in these tests, tags left out. Where a name states a change or a piece, a line headed by the entry shows the natural chain unless it says otherwise.
UniProt P18054: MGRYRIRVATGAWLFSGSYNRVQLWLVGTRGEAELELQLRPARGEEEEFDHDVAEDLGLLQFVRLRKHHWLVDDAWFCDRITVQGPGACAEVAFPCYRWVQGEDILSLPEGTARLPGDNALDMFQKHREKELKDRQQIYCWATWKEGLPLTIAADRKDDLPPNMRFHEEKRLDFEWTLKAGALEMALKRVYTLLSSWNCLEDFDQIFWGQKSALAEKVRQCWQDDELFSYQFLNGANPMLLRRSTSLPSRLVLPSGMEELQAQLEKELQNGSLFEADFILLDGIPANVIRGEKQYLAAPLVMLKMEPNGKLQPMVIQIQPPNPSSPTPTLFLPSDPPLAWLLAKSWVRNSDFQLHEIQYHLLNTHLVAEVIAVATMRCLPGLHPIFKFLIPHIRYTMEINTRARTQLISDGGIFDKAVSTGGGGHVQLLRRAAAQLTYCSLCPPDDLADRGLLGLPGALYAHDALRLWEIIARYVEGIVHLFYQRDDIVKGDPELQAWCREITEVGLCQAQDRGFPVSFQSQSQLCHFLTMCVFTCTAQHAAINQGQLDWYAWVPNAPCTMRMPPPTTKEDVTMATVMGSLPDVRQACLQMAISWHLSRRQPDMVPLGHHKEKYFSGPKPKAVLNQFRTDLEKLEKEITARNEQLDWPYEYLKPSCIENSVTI

biological target: Polyunsaturated fatty acid lipoxygenase ALOX12 (Homo sapiens) (UniProt P18054); assay: Primary qHTS assay for inhibitors of human arachidonate 12S-lipoxygenase (ALOX12): Round 2; settings: purified 12hLO, xylenol orange hydroperoxide absorbance; series mostly up to 108 µM
Summary of the method: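 Purified human 12hLO at 150 nM in 25 mM Hepes, 0.01% Triton X-100, pH 7.0, preincubated 15 min at room temperature with compound. Reaction started with 40 uM arachidonic acid, 30 min at room temperature. Hydroperoxide measured by Fe-xylenol orange, 573/405 nm absorbance ratio.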
Potency means the concentration at half of the fitted maximal effect.

Compound | Potency
COc1ccc(C)cc1S(=O)(=O)N1CCN(C(=O)c2ncoc2-c2cccc(C)c2)CC1 | inconclusive: 50.1 µM [inhibitor, partial curve, poor fit]
COCCNc1oc(-c2cccc(Cl)c2)nc1S(=O)(=O)c1ccc2c(c1)OCCO2 | inconclusive: 112 µM [inhibitor, single point]
COCCn1c(=O)c2c(n1Cc1ccccc1)CN(Cc1cccnc1OC)CC2 | inconclusive: 28.2 µM [inhibitor, full curve, poor fit]
CCCn1c(CCC(=O)Nc2cc(OC)cc(OC)c2)nc2cccnc21 | inactive
Cc1ccc(C2NC(=O)c3sc(=S)n(-c4ccccc4)c3N2)cc1 (configuration not stated) | inconclusive: 56.2 µM [inhibitor, partial curve, poor fit]
Cc1cc(NC(=O)CCn2c(=O)c3cccn3c3cccnc32)ccc1Br | inconclusive: 141 µM [inhibitor, partial curve, poor fit]
CC(NC(=O)Nc1ccc(Cl)c(Cl)c1)c1ccc(Cl)s1 (configuration not stated) | inconclusive: 4.47 µM [inhibitor, full curve, poor fit]
Cc1ccccc1OCC(=N)N | inconclusive: 50.1 µM [inhibitor, partial curve, poor fit]
C[C@H]1COC2=C1C(=O)C(=O)c1c2ccc2c1CCCC2(C)C | inconclusive: 0.685 µM [inhibitor, full curve]
CC1(C)CC2(CCO1)C(Nc1ccccc1)=NC(=S)N2CC(N)=O (configuration not stated) | inconclusive: 79.4 µM [inhibitor, partial curve, poor fit]
O=C(NCc1ccccc1)c1ccc2c(c1)OCCN(C1CCC1)C2 | inactive
O=C(CN1CCC(c2nc3ccccc3s2)CC1)NCc1ccccc1Cl | inconclusive: 44.7 µM [inhibitor, partial curve, poor fit]
CCCCS(=O)(=O)CCCCCO | inactive
COC(=O)c1sc(-c2ccc(Cl)cc2)cc1N | inconclusive: 44.7 µM [inhibitor, partial curve, poor fit]
O=C1C=Cc2cccc3ccc(O)c1c23 | inconclusive: 8.91 µM [inhibitor, full curve]
O=[N+]([O-])c1ccc(/C=N/n2c(-c3ccccc3)n[nH]c2=S)cc1 | inconclusive: 31.6 µM [inhibitor, single point]
CCCN1CCN(c2nnc(-n3cccc3C(=O)Nc3cc(Cl)ccc3C)s2)CC1 | inconclusive: 126 µM [inhibitor, partial curve, poor fit]
c1ccc(CCNc2ccc3c(c2)Cc2ccccc2-3)nc1 | inconclusive: 6.31 µM [inhibitor, full curve, poor fit]
CC(C)N1C(=O)C(NC(=O)C(=O)NCc2cccnc2)c2ccccc21 (configuration not stated) | inconclusive: 44.7 µM [inhibitor, partial curve, poor fit]
OCCCNc1nc(-c2ccc(Cl)cc2)nnc1-c1ccc(Br)cc1 | inconclusive: 63.1 µM [inhibitor, partial curve, poor fit]
COC(=O)c1ccc(C2C(C(=O)c3ccco3)=C(O)C(=O)N2CCc2ccccc2)cc1 (configuration not stated) | inconclusive: 44.7 µM [inhibitor, partial curve, poor fit]
N#C/C(=C(/O)COC(=O)Cc1c[nH]c2ccccc12)c1nc2ccccc2[nH]1 | inactive
CCOCC(=O)NC1CCc2cc(OC)c(OC)c(OC)c2-c2ccc(SC)c(=O)cc21 (configuration not stated) | inconclusive: 50.1 µM [inhibitor, partial curve, poor fit]

Structures listed so far with a thiophene ring, fused or not (2):
Compound | Potency
CC(NC(=O)Nc1ccc(Cl)c(Cl)c1)c1ccc(Cl)s1 (configuration not stated) | inconclusive: 4.47 µM [inhibitor, full curve, poor fit]
COC(=O)c1sc(-c2ccc(Cl)cc2)cc1N | inconclusive: 44.7 µM [inhibitor, partial curve, poor fit]

Additional structures follow.

Compound | Potency
Cc1ccc(NC(=O)C2CCCN(S(=O)(=O)c3cccc4nsnc34)C2)cc1C (configuration not stated) | inactive
O=C1NCc2ccccc2CC12CCCN2Cc1cccc(Br)c1 (configuration not stated) | inconclusive: 2.27 µM [inhibitor, partial curve]
CCCCn1cc(S(=O)(=O)c2cc(C)ccc2C)c(=O)c2cc(F)c(N3CCC(C)CC3)cc21 | inconclusive: 141 µM [inhibitor, single point]
COc1ccccc1NC(=O)/C(C#N)=C/c1ccncc1 | inconclusive: 44.7 µM [inhibitor, partial curve, poor fit]
COc1ccc(OCC(O)Cn2c(NCCc3ccccc3)nc3c2c(=O)n(C)c(=O)n3C)cc1 (configuration not stated) | inconclusive: 89.1 µM [inhibitor, single point]
CCn1c(CCn2c3ccccc3c3ccccc32)n[nH]c1=S | inconclusive: 56.2 µM [inhibitor, partial curve, poor fit]
O=C(NCc1cccc(F)c1)c1[nH]c(C(F)(F)F)nc1-c1ccccc1 | inconclusive: 31.6 µM [inhibitor, partial curve, poor fit]
O=C1NCCCCCCN(C(=O)Cc2cccnc2)[C@@H]2C[C@@H](c3nc(-c4cccnc4)no3)C[C@H]12 | inactive
C=CCNC(=O)c1nc(-c2ccc3cc[nH]c3c2)no1 | inactive
CCOC(=O)C1=C(COC(=O)c2cc(Br)c(Br)s2)NC(=O)NC1C (configuration not stated) | inconclusive: 50.1 µM [inhibitor, partial curve, poor fit]
Cc1cc(C(C)(C)C)oc1C(=O)N(CC(=O)NC1CCCC1)c1c(C)cccc1C | inactive
Cc1nn(-c2ccccc2)c2nc(N)c(C#N)c(-c3ccc(C(C)(C)C)cc3)c12 | inconclusive: 35.5 µM [inhibitor, single point]
COc1ccc(-c2nc(Cc3ccccc3Cl)no2)cc1OC | inconclusive: 126 µM [inhibitor, partial curve, poor fit]
O=C(CCOc1ccccc1)Nc1ccc(Cl)c(S(=O)(=O)N2CCOCC2)c1 | inactive
CCN(CC)C(=O)N1C[C@H](NC(=O)CCc2csc(N)n2)[C@@H](C2CC2)C1 | inconclusive: 70.8 µM [inhibitor, single point]
Cc1cc(C)cc(NC(=O)Nc2cc(-c3ccccc3)nn2C)c1 | inconclusive: 100 µM [inhibitor, single point]
CCC(CO)Oc1cc(NCc2ccc(C(F)(F)F)cc2)c2ncn(C(C)C)c2c1 (configuration not stated) | inconclusive: 31.6 µM [inhibitor, partial curve, poor fit]
COc1ccc(C(=O)NCC(c2ccco2)S(=O)(=O)c2ccc(F)cc2)cc1 (configuration not stated) | inactive
CC1(COc2ccccc2)COc2ccc(C(=O)NCc3cccc(F)c3)cc2N1 (configuration not stated) | inconclusive: 2 µM [inhibitor, full curve, poor fit]
CCOC(=O)[C@]12CCCC=C1N(CCC1=CCCCC1)C(=O)[C@H](CC(=O)NCCc1ccccc1OC)C2 | inactive
CN(C)CC[C@H](CSc1ccccc1)Nc1ccc(S(=O)(=O)NC(=O)c2ccc(N3CCN(Cc4ccccc4-c4ccc(Cl)cc4)CC3)cc2)cc1[N+](=O)[O-] | inactive
O=C1CCN(S(=O)(=O)c2ccc(F)cc2)C(c2ccccc2)C1 (configuration not stated) | inactive
O=C1CCC(OCc2ccccc2)CCN1CC[C@@H](Sc1ccccc1)c1ccccc1 (some centres not stated) | inconclusive: 126 µM [inhibitor, single point]

Compound | Potency
Cc1ccc(CN2C(=O)NC3(CCN(C(=O)c4ccc(C(C)(C)C)cc4)C3)C2=O)cc1 (configuration not stated) | inactive
COc1ccc(C(=O)O)cc1S(=O)(=O)NCc1ccncc1 | inconclusive: 31.6 µM [inhibitor, partial curve, poor fit]
OCCCNC(=S)NCCSc1ccccc1 | inconclusive: 3.98 µM [inhibitor, full curve, poor fit]
O=C(NCc1ccco1)C1CC(c2ccccc2O)=NO1 (configuration not stated) | inconclusive: 3.55 µM [inhibitor, full curve, poor fit]
Cn1c(=O)c2c([nH]c(=S)n2CCCc2ccccc2)n(C)c1=O | active: 1.26 µM
Cc1cccc(/C=C(/C(=O)O)c2cccs2)c1 | inconclusive: 141 µM [inhibitor, partial curve, poor fit]
Cc1ccc(/C(O)=C2\C(=O)C(=O)N(C)C2c2ccc(Br)cc2)cc1 (configuration not stated) | inconclusive: 25.1 µM [inhibitor, partial curve, poor fit]
Cc1cccc2[nH]c(C(=O)O)cc12 | inactive
CCN(CCC(F)(F)F)C(=O)Cc1c[nH]c2ccccc12 | inconclusive: 89.1 µM [inhibitor, single point]
CN(C)CCN(C)C1CN(CCc2ccccc2)S(=O)(=O)C1 (configuration not stated) | inconclusive: 141 µM [inhibitor, single point]
COc1ccc(N(CC(=O)Nc2c(C)n(C)n(-c3ccccc3)c2=O)S(=O)(=O)c2ccc(C)cc2)cc1OC | inconclusive: 22.4 µM [inhibitor, full curve, poor fit]
CCCNC(=O)c1ccc(OC)c(S(=O)(=O)NCC)c1 | inactive
Clc1ccccc1OCCCn1ccnc1 | active: 0.355 µM
O=[N+]([O-])c1cc(C(F)(F)F)ccc1NCCc1c[nH]c2ccccc12 | inactive
O=S(=O)(c1ccc(Cl)cc1)c1nc(-c2cccs2)oc1SCc1ccc(F)cc1 | inconclusive: 50.1 µM [inhibitor, partial curve, poor fit]
O=C1OC2(CCCC2)OC(=O)C1=Cc1c[nH]c2ccccc12 | inactive
CCOc1cccc(C(=O)NC(=S)Nc2cccc(C)c2)c1 | active: 20 µM
COc1ccc(-c2nc3ccccc3c(=O)n2N)cc1 | inactive
COc1ccc(C)cc1NC(=O)C(OC(=O)Cn1cnc2c1c(=O)n(C)c(=O)n2C)c1ccccc1 (configuration not stated) | inactive
CCC(C)c1ccccc1OCCCCN1CCCC1 (configuration not stated) | inconclusive: 7.08 µM [inhibitor, full curve, poor fit]
O=C(Cc1ccc(F)cc1)N1CCC2(CC1)NC(=O)N(c1ccccc1)N2 | active: 5.01 µM
